Experimental findings from PubChem BioAssay are described below.

The hits were mostly taken out for another list; the other results follow. The source made the active and inactive calls. Rule as the data show it: active = inhibition above about 37%; inactive = the rest.

In this test the test system is Hepatitis C virus NS3 helicase. In words: blockers of NS3h binding to ssDNA – biochemical, fluorescence polarization, LOPAC1280 library, primary screen (AID 687035). Particulars: Purified HCV NS3 helicase, Cy5-dT15 ssDNA binding fluorescence polarization; stronger effect = higher value; concentration not given here. In general terms: Polarisation of emitted light reports the rotation of a fluorescent probe.

As to `Oc1cc2c(c(Cl)c1O)CCNCC2c1ccccc1` (stereo unspecified), the inhibition (in general, the change of the read-out against control, counted positive when it falls) is inactive: -4%.
